These results are taken from article PMC6063507.

Sequences of proteins named here, by UniProt entry; tags and fusion partners are left off. A change or cut given only in a name is not applied to a line headed by its entry. Residues count along the entry.
UniProt Q9NPY3, residues 22-652: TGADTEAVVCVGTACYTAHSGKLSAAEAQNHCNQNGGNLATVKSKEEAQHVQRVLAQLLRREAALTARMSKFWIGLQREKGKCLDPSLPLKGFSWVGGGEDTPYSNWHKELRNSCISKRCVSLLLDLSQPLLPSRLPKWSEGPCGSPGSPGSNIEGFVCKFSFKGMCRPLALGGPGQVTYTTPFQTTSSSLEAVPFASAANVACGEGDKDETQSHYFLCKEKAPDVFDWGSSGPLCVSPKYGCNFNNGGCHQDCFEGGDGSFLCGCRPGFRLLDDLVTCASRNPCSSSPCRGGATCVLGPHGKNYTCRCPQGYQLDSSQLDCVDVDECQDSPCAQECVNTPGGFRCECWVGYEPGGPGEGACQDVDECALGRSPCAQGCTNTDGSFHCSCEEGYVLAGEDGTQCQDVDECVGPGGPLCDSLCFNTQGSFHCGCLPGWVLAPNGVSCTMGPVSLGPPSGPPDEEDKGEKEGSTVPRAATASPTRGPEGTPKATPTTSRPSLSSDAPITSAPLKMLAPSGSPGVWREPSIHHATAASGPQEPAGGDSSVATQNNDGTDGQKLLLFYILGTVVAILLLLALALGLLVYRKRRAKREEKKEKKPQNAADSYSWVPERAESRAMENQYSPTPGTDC
UniProt P05556: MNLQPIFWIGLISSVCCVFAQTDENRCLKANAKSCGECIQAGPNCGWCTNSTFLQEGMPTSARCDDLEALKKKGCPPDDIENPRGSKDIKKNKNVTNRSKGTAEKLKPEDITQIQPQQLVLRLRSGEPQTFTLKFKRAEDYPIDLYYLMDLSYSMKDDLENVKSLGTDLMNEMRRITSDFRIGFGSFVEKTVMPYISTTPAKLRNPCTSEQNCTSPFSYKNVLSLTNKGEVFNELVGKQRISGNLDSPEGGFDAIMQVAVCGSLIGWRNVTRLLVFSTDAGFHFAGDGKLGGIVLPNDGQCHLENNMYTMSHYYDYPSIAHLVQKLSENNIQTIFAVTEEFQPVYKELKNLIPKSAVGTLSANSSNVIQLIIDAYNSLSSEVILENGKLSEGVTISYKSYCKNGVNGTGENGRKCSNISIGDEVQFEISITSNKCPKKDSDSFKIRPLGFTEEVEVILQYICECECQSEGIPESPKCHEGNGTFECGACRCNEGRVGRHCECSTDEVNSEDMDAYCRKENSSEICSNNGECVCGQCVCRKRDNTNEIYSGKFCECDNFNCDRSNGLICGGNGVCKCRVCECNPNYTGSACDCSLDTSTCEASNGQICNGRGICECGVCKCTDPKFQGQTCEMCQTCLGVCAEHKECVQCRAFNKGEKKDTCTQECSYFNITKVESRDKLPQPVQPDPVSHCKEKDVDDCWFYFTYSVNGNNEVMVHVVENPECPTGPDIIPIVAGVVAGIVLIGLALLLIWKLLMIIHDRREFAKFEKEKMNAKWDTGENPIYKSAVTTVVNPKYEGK

The target of this assay is CD93 (human (endogenous in HDMECs and HDBECs)) (UniProt Q9NPY3). Description: proximity ligation; in situ PLA (Duolink II) on cultured HDBECs with pairs of primary antibodies; single primary antibodies and probes alone as negative controls; signals per cell counted.

No constants are given. Whether binding was seen depends on the method and setting. In cells and extracts the contact can be indirect. Some entries that bind do so weakly or less than the wild type.

Turning to “active β1 integrin (from UniProt P05556 21-798) (receptor)”, the binding entry was “binds”.
